{
  "source": "patent EP0391644B1",
  "about": "“Aryl-substituted rhodanine derivatives” (ELI LILLY AND COMPANY, priority 1989, dated 1990)",
  "system": "ischemia-induced brain damage in the hippocampal CA1 region",
  "experiment": "Stroke model in rats",
  "format": "in vivo, Male Wistar rats",
  "conditions": "mean ± standard error, scale 0 = no damage to 3 = severe damage of CA1 layer",
  "excerpt": "Strokes were produced in rats by occluding the four arteries that supply blood to the brain according to the following procedure. Male Wistar rats were anesthetized with Metofane and placed into a stereotaxic instrument. A longitudinal incision was made on the dorsal surface of the neck. The neck muscles were reflected to expose the dorsal surface of the spinal column. The two vertebral arteries were exposed where they pass through the first cervical vertebra. Both arteries were permanently occluded by the application of electrocautery. After coagulation of the vertebral arteries, the rat was removed from the stereotaxic instrument and the surgical wound was sutured. Two longitudinal incisions were then made on the ventral surface of the neck. The two common carotid arteries were exposed and dissected free from surrounding nerves and connective tissue. An atraumatic clasp, fabricated mainly from silicon rubber tubing, was placed around each carotid artery in a manner such that the vessel was not traumatized or occluded. The surgical wounds were then closed. […]\nDamage in 10-12 sections from each brain was assessed in order to obtain an accurate estimate of damage. An average damage score was calculated for each treatment group. […] The level of significance was determined using Student's \"t-test\".",
  "note": "The name of at least one read-out is uncertain.",
  "data": [
    {"smiles": "CC(C)(C)c1cc(C=C2SCNC2=O)cc(C(C)(C)C)c1O", "note": "[Example 2, 5-{[3,5-bis(1,1-dimethylethyl)-4-hydroxyphenyl]methylene}-4-thiazolidinone]", "values": [
      {"measurement": "Damage Score", "setting": "50 mg/kg given orally as a suspension in 2% acacia", "value": "1.2 ± 0.2 (p<0.02)"},
      {"measurement": "Damage Score", "setting": "200 mg/kg given orally as a suspension in 2% acacia", "value": "0.2 ± 0.2 (p<0.02)"}
    ]}
  ]
}
